Experimental data: PubChem BioAssay AID1259254 (NCATS, 2017)

Aim: 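Gene knock-downs that lead to re-replication, shown by excess G2 DNA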 (primary screen)
System: human HCT116 colorectal cancer cells
Reagents: single siRNA against human genes
Duration: 3 days
Measurement: 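Imaged Hoechst DNA stain sorts each cell into a cycle phase by DNA amount; per plate, G2 fraction set to 0% for non-targeting and 100% for GMNN siRNA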
Scale: G2 robust z-score and G2 cells, % of GMNN control: higher = more G2 cells, more excess DNA replication; raw share of cells in G2: higher = larger share of cells with G2 DNA content
Active means: 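Active siRNAs have a G2 robust z of 5 or more median absolute deviations over the median, which in these data means about 38% or higher of GMNN control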
In all, the deposit lists about 59,000 reagents; shown is an unselected part. About 1,550 of all reagents (2.6%) were called active. 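G2 share is only a proxy for re-replication; each gene was hit by three separate siRNAs, and active genes were retested.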 Raw values are not corrected between plates. Unmarked entries are inactive. No sequences are given here. Not given: the amount of reagent.

The opening 6 records, ahead of the listing:
target gene	PubChem SID	G2 robust z-score	G2 cells, % of GMNN control	raw share of cells in G2 (%)
VDR (vitamin D receptor)	SID160718738	-0.96	-3.79	4.41
VDR (vitamin D receptor)	SID160718739	0.505	6.52	6.78
VDR (vitamin D receptor)	SID160718740	-0.0158	2.86	4.9
TEX28 (testis expressed 28)	SID160750956	0.964	9.75	9.87
TEX28 (testis expressed 28)	SID160750967	0.961	9.73	7.65
TEX28 (testis expressed 28)	SID160750978	2.16	18.2	10.6

The list itself, from the first entry:
target gene	PubChem SID	G2 robust z-score	G2 cells, % of GMNN control	raw share of cells in G2 (%)
VDR (vitamin D receptor)	SID160718738	-0.96	-3.79	4.41
VDR (vitamin D receptor)	SID160718739	0.505	6.52	6.78
VDR (vitamin D receptor)	SID160718740	-0.0158	2.86	4.9
TEX28 (testis expressed 28)	SID160750956	0.964	9.75	9.87
TEX28 (testis expressed 28)	SID160750967	0.961	9.73	7.65
TEX28 (testis expressed 28)	SID160750978	2.16	18.2	10.6
SPATA25 (spermatogenesis associated 25)	SID160724798	0.678	7.74	5.56
SPATA25 (spermatogenesis associated 25)	SID160732446	-0.694	-1.91	1.89
SPATA25 (spermatogenesis associated 25)	SID160756771	1.08	10.6	8.17
MLF2 (myeloid leukemia factor 2)	SID160719609	-0.0235	2.8	6.78
MLF2 (myeloid leukemia factor 2)	SID160719610	2.34	19.4	10.9
MLF2 (myeloid leukemia factor 2)	SID160719612	1.39	12.8	9.02
TMCC2 (transmembrane and coiled-coil domain family 2)	SID160723416	-0.767	-2.43	4.23
TMCC2 (transmembrane and coiled-coil domain family 2)	SID160723417	0.314	5.18	6.11
TMCC2 (transmembrane and coiled-coil domain family 2)	SID160723418	-0.516	-0.663	3.16
KRTDAP (keratinocyte differentiation associated protein)	SID160765880	-0.578	-1.1	3.4
KRTDAP (keratinocyte differentiation associated protein)	SID160765882	-0.941	-3.65	1.82
KRTDAP (keratinocyte differentiation associated protein)	SID160765883	-0.243	1.26	5.17
TBC1D25 (TBC1 domain family member 25)	SID160778330	3.46	27.3	15.8
TBC1D25 (TBC1 domain family member 25)	SID160778331	0.121	3.82	4.5
TBC1D25 (TBC1 domain family member 25)	SID160778332	0.0605	3.39	6.49
RBMY2DP	SID160770556	3.88	30.3	16.5
RBMY2DP	SID160770557	1.41	12.9	7.93
RBMY2DP	SID160770558	-0.448	-0.187	2.72
XIRP2 (xin actin binding repeat containing 2)	SID160756861	1.45	13.1	9.44
XIRP2 (xin actin binding repeat containing 2)	SID160756862	-0.903	-3.39	3.51
XIRP2 (xin actin binding repeat containing 2)	SID160756863	0.479	6.34	8.61
ATAD3A (ATPase family AAA domain containing 3A)	SID160724457	1.12	10.9	8.87
ATAD3A (ATPase family AAA domain containing 3A)	SID160743236	3.57	28.1	18.7
ATAD3A (ATPase family AAA domain containing 3A)	SID160743237	1.01	10	8.04
P4HB (prolyl 4-hydroxylase subunit beta)	SID160757377	-0.256	1.17	3.6
P4HB (prolyl 4-hydroxylase subunit beta)	SID160757479	-0.515	-0.654	4.49
P4HB (prolyl 4-hydroxylase subunit beta)	SID160757583	-0.119	2.13	6.01
TRO (trophinin)	SID160718350	-0.183	1.68	6.31
TRO (trophinin)	SID160718351	0.753	8.27	7.2
TRO (trophinin)	SID160718352	-0.727	-2.15	3.46
FSHR (follicle stimulating hormone receptor)	SID160730885	0.0327	3.2	4.8
FSHR (follicle stimulating hormone receptor)	SID160767458	0.261	4.8	6.98
FSHR (follicle stimulating hormone receptor)	SID160767469	0.2	4.37	6.93
RIC1 (RIC1 partner of RAB6A GEF complex)	SID160746353	0.0199	3.11	5.57
RIC1 (RIC1 partner of RAB6A GEF complex)	SID160746354	-0.856	-3.05	3
RIC1 (RIC1 partner of RAB6A GEF complex)	SID160746355	-0.261	1.13	3.39
CLIP2 (CAP-Gly domain containing linker protein 2)	SID160718811	-0.225	1.38	5.75
CLIP2 (CAP-Gly domain containing linker protein 2)	SID160718812	0.359	5.49	6.07
CLIP2 (CAP-Gly domain containing linker protein 2)	SID160718813	-0.628	-1.45	2.84
DCAF12L2 (DDB1 and CUL4 associated factor 12 like 2)	SID160725096	0.0373	3.23	5.49
DCAF12L2 (DDB1 and CUL4 associated factor 12 like 2)	SID160764461	-0.531	-0.769	3.72
DCAF12L2 (DDB1 and CUL4 associated factor 12 like 2)	SID160764462	-1.24	-5.76	0.74
